# Measured data: PubChem BioAssay AID1159578 (Peter MacCallum Cancer Centre, 2015)
# Purpose: 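siRNA pools altering how lymphatic endothelial cells close a scratch wound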 (primary screen)
# Cells: human lymphatic endothelial cells
# Knock-down reagent: siRNA pool against human genes, 40 nM
# Duration: 48 h after transfection
# Measured: 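Cells stained with dye and imaged after a scratch; covered wound area and nuclei counted, duplicates averaged, migration set against mock wells and turned into a robust z-score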
# Reading the numbers: migration robust z-score: higher = faster migration into the scratch; migration relative to mock: higher = more scratch area covered than mock; nuclei per well: higher = more cells in the well
# Hit rule: 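Pools averaging fewer than 3300 nuclei are never called; remaining pools count as changed when migration robust z lies outside -2 to 2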
# Meaning of the calls: active = migration changed; inactive = no migration change, or too few cells
# This is an unselected part of about 18,000 reagents. About 1,030 of them (5.7%) count as active. 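Inactive calls also include pools with fewer than 3300 nuclei, whose migration was not assessed.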 Raw values vary from plate to plate and are shown uncorrected. Unmarked entries are inactive.
gene,PubChem SID,migration robust z-score,migration class with cell-count check,migration relative to mock,"nuclei per well, duplicate mean"
MRPS9,SID255360061,0.99,migration z between -2 and 2; enough cells,1.14,5551
OXCT1,SID255351380,0.99,migration z between -2 and 2; enough cells,1,6628
CRISPLD1,SID255361059,0.86,migration z between -2 and 2; enough cells,1.12,7242
SAMTOR,SID255363596,-1.76,migration z between -2 and 2; enough cells,0.43,3978
ZNF341,SID255361566,0.22,migration z between -2 and 2; enough cells,0.94,6203
ATP5MJ,SID255354371,0.66,migration z between -2 and 2; enough cells,1.06,6631
CLEC1A,SID255357602,2.1 (active),migration z above 2; enough cells,1.21,5348
CNOT4,SID255351270,0.6,migration z between -2 and 2; enough cells,0.92,6163
ABCG1,SID255354416,0.1,migration z between -2 and 2; enough cells,0.91,6124
NEURL3,SID255362055,-1.5,migration z between -2 and 2; enough cells,0.52,5648
DNAJB7,SID255363451,0.71,migration z between -2 and 2; enough cells,1.07,5718
BEST3,SID255363225,0.29,migration z between -2 and 2; enough cells,0.86,5890
VARS1,SID255353090,-0.21,migration z between -2 and 2; enough cells,0.76,6688
ITGAV,SID255350547,1.58,migration z between -2 and 2; enough cells,1.11,5056
COX16,SID255357582,0.94,migration z between -2 and 2; enough cells,1.12,5009
NRXN2,SID255354235,1.61,migration z between -2 and 2; enough cells,1.3,6052
ANKRD39,SID255357581,0.68,migration z between -2 and 2; enough cells,1.06,6222
DNAI7,SID255358547,-1.14,migration z between -2 and 2; enough cells,0.6,5489
GALNT11,SID255359771,1.06,migration z between -2 and 2; enough cells,1.01,4824
EGR2,SID255349457,-0.34,migration z between -2 and 2; enough cells,0.74,5696
RIMKLA,SID255364809,-1.66,migration z between -2 and 2; enough cells,0.45,5300
ARFGEF1,SID255355185,0.78,migration z between -2 and 2; enough cells,1.09,6180
LRRC52,SID255365920,0.67,migration z between -2 and 2; enough cells,1.07,5290
TPR,SID255352951,-0.94,migration z between -2 and 2; enough cells,0.64,6322
MS4A6E,SID255364370,-0.06,migration z between -2 and 2; enough cells,0.87,6121
LGI3,SID255364118,-2.27 (active),migration z below -2; enough cells,0.3,3308
PCNX2,SID255360617,-0.5,migration z between -2 and 2; enough cells,0.76,5204
LANCL3,SID255365221,0.14,migration z between -2 and 2; enough cells,0.92,6160
HERC2P3,SID255364706,-1.12,migration z between -2 and 2; enough cells,0.6,4314
KCNK2,SID255350622,0.6,migration z between -2 and 2; enough cells,0.92,6003
HNRNPA2B1,SID255350244,1.4,migration z between -2 and 2; enough cells,1.25,6493
IL6ST,SID255350460,-0.78,migration z between -2 and 2; enough cells,0.66,7139
PRDX6,SID255354396,-0.46,migration z between -2 and 2; enough cells,0.72,3810
DLGAP1-AS1,SID255366122,-0.1,migration z between -2 and 2; enough cells,0.86,5731
ITGB1BP2,SID255356815,0.46,migration z between -2 and 2; enough cells,1,6340
ASAP2,SID255353868,0.18,migration z between -2 and 2; enough cells,0.94,5998
RABGAP1L,SID255354657,2.41 (active),migration z above 2; enough cells,1.51,5604
NIF3L1,SID255359717,-2.68 (active),migration z below -2; enough cells,0.18,5136
C20orf144,SID255362819,-0.54,under 3300 nuclei; migration not judged,0.75,3203

Part of the list above, set out differently:
gene | PubChem SID | migration robust z-score | migration class with cell-count check | migration relative to mock | nuclei per well, duplicate mean
SAMTOR | SID255363596 | -1.76 | migration z between -2 and 2; enough cells | 0.43 | 3978
ZNF341 | SID255361566 | 0.22 | migration z between -2 and 2; enough cells | 0.94 | 6203
ATP5MJ | SID255354371 | 0.66 | migration z between -2 and 2; enough cells | 1.06 | 6631
CLEC1A | SID255357602 | 2.1 (active) | migration z above 2; enough cells | 1.21 | 5348
